# According to the RNAGym collection of RNA variant scans (doi:10.1126/science.aae0568):
# Variants at the background level are over-represented here.
# B1: tRNA (parent)
# chain: GUUCCGUUGGCGUAAUGGUAACGCGUCUCCCUCCUAAGGAGAAGACUGCGGGUUCGAGUCCCGUACGGAACG
# Variants of: B1
# Assay: yeast fitness relative to wild type (ratio to wild type); higher = fitter; tRNA-Arg(CCU), competitive growth, 37 C, YPD
# In short: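 Changes in genotype frequencies gave Darwinian fitness relative to wild type. Frequencies were read by 100-nucleotide paired-end sequencing of gene amplicons before and after pooled Saccharomyces cerevisiae strains, carrying tRNA-Arg(CCU) gene variants at the native locus, were competed in YPD at 37°C for 24 hours in six replicates. A genotype was kept only with ≥ 100 starting reads, and estimates < 0.5 were set to 0.5.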
row,Variant,yeast fitness
1,C4A C5G A57U G68U,0.575
2,C4A C5U A21C C34G A40C G50C A57U,≤ 0.5
3,C4A C5U C22U C34A A57G,≤ 0.5
4,C4A C5U G17A G39A G52C,≤ 0.5
5,C4A C11A A40G U54A,≤ 0.5
6,C4A C11U C29G U32A C62A,≤ 0.5
7,C4A C24U C60G,≤ 0.5
8,C4A C27G C55U,≤ 0.5
9,C4A C29U A37G G39C C49U,≤ 0.5
10,C4A C29U A37G G39C C49U U64A,≤ 0.5
11,C4A C30U A69C,≤ 0.5
12,C4A C30U G38C A42G,≤ 0.5
13,C4A C31A C33G,≤ 0.5
14,C4A G12C A42U,≤ 0.5
15,C4A G17A C24G G68C,≤ 0.5
16,C4A G17C G23C A45C C60U,≤ 0.5
17,C4A G18U C60A,≤ 0.5
18,C4A G23A U28A G48A A70C,≤ 0.5
19,C4A G52C A57C,≤ 0.5
20,C4A U7A U8A C60A,≤ 0.5
21,C4A U7C G41A C49A U54C,≤ 0.5
22,C4A U7G G12C A57U,≤ 0.5
23,C4A U8A G17C C31U A65C,≤ 0.5
24,C4A U8C G18C C33U G48A,≤ 0.5

row,Variant,yeast fitness
1,C4A U13G C49A,≤ 0.5
2,C4A U13G U32G C55U G63C,≤ 0.5
3,C4A U16C G17A C49U,≤ 0.5
4,C4A U26G C29G U47G U59G,≤ 0.5
5,C4A U26G U32A G44C G58A G68C,≤ 0.5
6,C4A U28G C31U A40C A57G,≤ 0.5
7,C4A U32C G50A A65U,≤ 0.5
8,C4A U54A C62U A65G G68A,≤ 0.5
9,C4G A14C A57U C60G,≤ 0.5
10,C4G A14C C30U A40U,≤ 0.5
11,C4G A14G C31A C66U,≤ 0.5
12,C4G A14G G38A,≤ 0.5
13,C4G A14G G38A G56C A70G,≤ 0.5
14,C4G A15U C29A C61U,≤ 0.5
15,C4G A21G C24A C29U G44C G58C,≤ 0.5
16,C4G A40C G68A,≤ 0.5
17,C4G A40G C46G C60U,≤ 0.5
18,C4G A40U A42C A57C,≤ 0.5
19,C4G A45G U54G,≤ 0.5
20,C4G C5A A20U A69C,≤ 0.5
21,C4G C5A U13A A21C C33U G52A A57G G67U,≤ 0.5
22,C4G C5G C11U C29U G51A,≤ 0.5
23,C4G C5U C31G G41A A43C G51C A70U,≤ 0.5
24,C4G C5U C55G A57G,≤ 0.5

row,Variant,yeast fitness
1,C4G C11A U28G U47G C49G C55G,≤ 0.5
2,C4G C11A U32C,≤ 0.5
3,C4G C11G A43C C55U,≤ 0.5
4,C4G C11U A14G C31A C33A,≤ 0.5
5,C4G C11U A21C G39C A42U G48C,≤ 0.5
6,C4G C11U U47A C60G C62A,≤ 0.5
7,C4G C24U U32C G39C,≤ 0.5
8,C4G C29G U35G G41C C62U U64A,≤ 0.5
9,C4G C30A A45U C55U,≤ 0.5
10,C4G C30A C62G,≤ 0.5
11,C4G C31U A36G A45U,≤ 0.5
12,C4G C33A A40U G68A,≤ 0.5
13,C4G C55U A65G G68C,≤ 0.5
14,C4G G6C G18A C24U C27A U35C G41A U47C,≤ 0.5
15,C4G G12C C46U,≤ 0.5
16,C4G G23A C55A G67A,≤ 0.5
17,C4G G23C C30G,≤ 0.5
18,C4G G23C C66A,≤ 0.5
19,C4G G25A C60G G68C,≤ 0.5
20,C4G G25C C30G G58C U59A C62G,≤ 0.5
21,C4G G25U U64G,≤ 0.5
22,C4G G38C,0.763
23,C4G G50C,0.679
24,C4G U8A C49U,≤ 0.5

row,Variant,yeast fitness
1,C4G U8C C24G C30G C49A,≤ 0.5
2,C4G U13A A21C U35A,≤ 0.5
3,C4G U16C,0.806
4,C4G U19G G44A C46G,≤ 0.5
5,C4G U28A G39A A65U G68A,≤ 0.5
6,C4G U32A C61A,≤ 0.5
7,C4G U32C A45U,0.537
8,C4G U35C G39A,≤ 0.5
9,C4G U47A C49G,≤ 0.5
10,C4U A14C G44A U54A A70U,≤ 0.5
11,C4U A14C U53A,≤ 0.5
12,C4U A14G A15G C22U C46U A70U,≤ 0.5
13,C4U A15C G41A G63C,≤ 0.5
14,C4U A15G C22U G44C,≤ 0.5
15,C4U A15G G25A G48C C62A,≤ 0.5
16,C4U A20U,0.988
17,C4U A20U C27G C30G A43G C66U,≤ 0.5
18,C4U A37G G39C U53A C66U,≤ 0.5
19,C4U A40G G63A G67A,≤ 0.5
20,C4U C5A A15U C34U,≤ 0.5
21,C4U C5A C29A C30G G38U,≤ 0.5
22,C4U C5G C29G C31G A37C U54A,≤ 0.5
23,C4U C5G C62U C66G,≤ 0.5
24,C4U C11G C62U,≤ 0.5

row,Variant,yeast fitness
1,C4U C11U C22G G39C G44C G52C,≤ 0.5
2,C4U C11U G23C A37U G44A,≤ 0.5
3,C4U C11U G44C A70U,≤ 0.5
4,C4U C11U G44C C49U A70U,≤ 0.5
5,C4U C22G U28A A36U,≤ 0.5
6,C4U C22U U47G,≤ 0.5
7,C4U C27A A36C A40G C62A,≤ 0.5
8,C4U C27A C31U C60G,≤ 0.5
9,C4U C27G G52A,≤ 0.5
10,C4U C29U C31A C55U A57C,≤ 0.5
11,C4U C30A C34G A40G,≤ 0.5
12,C4U C30A C62U,0.792
13,C4U C30G A40U G58U,≤ 0.5
14,C4U C33A G48C,≤ 0.5
15,C4U C34A A37G G41C C55G,≤ 0.5
16,C4U C34U A40C C62U A65U,≤ 0.5
17,C4U C46A C49A,≤ 0.5
18,C4U C55U A65G,0.554
19,C4U C62G G68A,≤ 0.5
20,C4U G6A U13C U28C U59A C61A C66U G68C,≤ 0.5
21,C4U G6C G10A A21U A45U G68C,≤ 0.5
22,C4U G9A,0.927
23,C4U G9A C22G A42U,0.546
24,C4U G9A C22G A42U C62A C66G,≤ 0.5

row,Variant,yeast fitness
1,C4U G9C A45G,≤ 0.5
2,C4U G12A C60G,≤ 0.5
3,C4U G17C U26A A45G,≤ 0.5
4,C4U G39U,0.834
5,C4U G48C G52C A57C G58A,≤ 0.5
6,C4U G52A G58A,≤ 0.5
7,C4U G52C C62G,≤ 0.5
8,C4U U7C C24U C29U C34G,≤ 0.5
9,C4U U7G C34G C61U,≤ 0.5
10,C4U U8A C30U G51C,≤ 0.5
11,C4U U13A A14U C29U A37G C60U G68U,≤ 0.5
12,C4U U26A A37C C49U G56A,≤ 0.5
13,C4U U47C C60A,≤ 0.5
14,C5A A14C G23A C24G A36U,≤ 0.5
15,C5A A14G G25A C30A A57U,≤ 0.5
16,C5A A15C C29A U32C A42C A45G,≤ 0.5
17,C5A A15U C31G G39A C61G,≤ 0.5
18,C5A A20C C22A A36C,≤ 0.5
19,C5A A20U C29A A65U,≤ 0.5
20,C5A A21G C22G C27A C33U A40U C55G,≤ 0.5
21,C5A A21G G23A G67C,0.591
22,C5A A57U,0.669
23,C5A C11G C31G,≤ 0.5
24,C5A C11G C33A G38A G67A,≤ 0.5

row,Variant,yeast fitness
1,C5A C11G G41C C49A C60G C61U,≤ 0.5
2,C5A C22G C29A A43U C60U G67C,≤ 0.5
3,C5A C24G A45C,≤ 0.5
4,C5A C27U A37U,≤ 0.5
5,C5A C30A C34U C46U,≤ 0.5
6,C5A C30U U47A G67C,≤ 0.5
7,C5A C31G C33U,≤ 0.5
8,C5A C34G A36G G67A A70G,≤ 0.5
9,C5A C34G A43U,≤ 0.5
10,C5A C46A G56C G68A A70G,≤ 0.5
11,C5A C49U,0.848
12,C5A G9C U13G U28C G41C A43C A45U C49G U53G A69C,≤ 0.5
13,C5A G10C U26C A40U A42C G67A,≤ 0.5
14,C5A G12A G18A A57G,≤ 0.5
15,C5A G17A A43U C55U,≤ 0.5
16,C5A G38U C55A,≤ 0.5
17,C5A U8A C46G,≤ 0.5
18,C5A U13G,0.841
19,C5A U16A A43G U59A C61A,≤ 0.5
20,C5A U16A A45G G50A C55A,≤ 0.5
21,C5A U16A A45G G50A G63A,≤ 0.5
22,C5A U16C C22U A65U,≤ 0.5
23,C5A U16G C27U C29U A36U G41A A69C,≤ 0.5
